Measurements reported in patent US20150147411A1, “COMPOSITION FOR PREVENTING OR TREATING COLITIS COMPRISING S-ALLYL-L-CYSTEINE AS ACTIVE INGREDIENT, AND MEDICAL PREPARATION COMPRISING SAME” (PHARMAKING CO., LTD., priority 2012, published 2015).

Test: Body weight of mice pre-treated with compositions, DSS-induced colitis
Assay type: in vivo, C57BL6 mice
Conditions: 2011.12.28, start of experiment
Protocol: In this experiment, C57BL6 mice were employed for the following reasons. The experimental animals are widely used throughout the world and are evaluated as being suitable for validity assays. In addition, because a great amount of fundamental test data on various disease models of the animals has been accumulated, the data can be utilized in analyzing and assessing test results. When purchased from OrientBio Inc. the experimental animals weighed 18 g±20%. They were bred under a light intensity of 150˜300 Lux in the controlled condition of 12:12-h light-dark cycles, with at least 10 ventilation rounds per hour.
For use in testing therapeutic effects of the agents of Examples, Comparative Examples, and Control Examples, the mice (G1 to G7) were fed with a 2.5 wt % aqueous dextran sodium sulfate (DSS) solution to induce inflammatory bowel disease therein.
Weights are expressed as mean±standard deviation.
From Jan. 12, 2012, the mice were allowed to drink an aqueous DSS 2.5 wt % solution for 7 days. DSS-induced diarrhea or hematochezia caused mice in groups G2 to G7 to lose weight, as compared at the point of DSS treatment.

| Compound | Body weight (mean ± standard deviation) (G3, Ex. 1 12.5 mg/kg) [g] | Body weight (mean ± standard deviation) (G4, Ex. 1 25 mg/kg) [g] | Body weight (mean ± standard deviation) (G5, Ex. 1 50 mg/kg) [g] | Body weight (mean ± standard deviation) (G6, Ex. 1 100 mg/kg) [g] | Body weight (mean ± standard deviation) (G7, Control 50 mg/kg) [g] |
| --- | --- | --- | --- | --- | --- |
| C=CCSC[C@H](N)C(=O)O [Example 1, S-allyl-L-cysteine] | 20.9 ± 1.5 | 20.2 ± 0.9 | 20.7 ± 1.1 | 20.5 ± 0.9 | – |
| O=C(NC(Cc1cc(=O)[nH]c2ccccc12)C(=O)O)c1ccc(Cl)cc1 (centres unmarked) [Control, Rebamipide, reference compound] | – | – | – | – | 20.7 ± 0.7 |
